{
  "source": "paper PMC6381024",
  "about": "(Frontiers in Chemistry, 2019)",
  "assay": "general procedure: Fmoc solid-phase peptide synthesis; Polystyrene Rink amide resin, 75–100 mesh, 1% DVB, 0.5 mmol/g (Advanced Chemtech); HBTU, DIEA in DMF",
  "details": "whole synthesis; for final LC-MS purity / crude LC-MS purity: 280 nm; for final LC-MS purity / crude LC-MS purity / isolated yield: scale of the general procedure 200 mg resin (0.5 mmol/g)",
  "key": {"[1]": {"details": "LC-MS, 10–90% MeOH or MeCN (0.1% FA) in water (0.1% FA) over 14 min"}},
  "data": [
    {"substance": "H-D-Arg- D-Tyr-(3R ,4S)-Hgl-(S)-Val-D-Glu-D-Leu- D-Ala-NH2", "values": [
      {"measurement": "isolated mass", "value": 11, "unit": "mg"},
      {"measurement": "final LC-MS purity", "value": ">99", "unit": "%"},
      {"measurement": "crude LC-MS purity", "setting": "[1]", "value": 52, "unit": "%"},
      {"measurement": "final LC-MS purity", "setting": "[1]", "value": ">95", "unit": "%"},
      {"measurement": "isolated yield", "value": 13, "unit": "%"}
    ]},
    {"substance": "H-D-Arg-D-Tyr-(S)-Agl-(S)-Val-D-Glu-D-Leu-D-Ala-NH2", "values": [
      {"measurement": "isolated mass", "value": 11, "unit": "mg"},
      {"measurement": "final LC-MS purity", "value": ">99", "unit": "%"},
      {"measurement": "crude LC-MS purity", "setting": "[1]", "value": 56, "unit": "%"},
      {"measurement": "final LC-MS purity", "setting": "[1]", "value": ">95", "unit": "%"},
      {"measurement": "isolated yield", "value": 13, "unit": "%"}
    ]},
    {"substance": "H-D-Arg- D-Tyr-(3S ,4S)-Hgl-(S)-Val-D-Glu- D-Leu- D-Ala-NH2", "values": [
      {"measurement": "isolated mass", "value": 10, "unit": "mg"},
      {"measurement": "final LC-MS purity", "value": ">99", "unit": "%"},
      {"measurement": "crude LC-MS purity", "setting": "[1]", "value": 45, "unit": "%"},
      {"measurement": "final LC-MS purity", "setting": "[1]", "value": ">95", "unit": "%"},
      {"measurement": "isolated yield", "value": 12, "unit": "%"}
    ]},
    {"substance": "H-D-Arg-D-Tyr-(R)-Agl-(S)-Val-D-Glu-D-Leu-D-Ala-NH2", "values": [
      {"measurement": "isolated mass", "value": 13, "unit": "mg"},
      {"measurement": "final LC-MS purity", "value": ">97", "unit": "%"},
      {"measurement": "crude LC-MS purity", "setting": "[1]", "value": 63, "unit": "%"},
      {"measurement": "final LC-MS purity", "setting": "[1]", "value": ">95", "unit": "%"},
      {"measurement": "isolated yield", "value": 16, "unit": "%"}
    ]},
    {"substance": "H-D-Arg-D-Tyr-(S)-Agl-D-Val-D-Glu-D-Leu-D-Ala-NH2", "values": [
      {"measurement": "isolated mass", "value": 12, "unit": "mg"},
      {"measurement": "final LC-MS purity", "value": ">99", "unit": "%"},
      {"measurement": "crude LC-MS purity", "setting": "[1]", "value": 42, "unit": "%"},
      {"measurement": "final LC-MS purity", "setting": "[1]", "value": ">95", "unit": "%"},
      {"measurement": "isolated yield", "value": 15, "unit": "%"}
    ]},
    {"substance": "H-D-Arg-D-Tyr-(R)-Agl-D-Val-D-Glu-D-Leu-D-Ala-NH2", "values": [
      {"measurement": "isolated mass", "value": 10, "unit": "mg"},
      {"measurement": "final LC-MS purity", "value": ">99", "unit": "%"},
      {"measurement": "crude LC-MS purity", "setting": "[1]", "value": 44, "unit": "%"},
      {"measurement": "final LC-MS purity", "setting": "[1]", "value": ">95", "unit": "%"},
      {"measurement": "isolated yield", "value": 12, "unit": "%"}
    ]},
    {"substance": "H-D-Arg- D-Tyr-(3R ,4S)-Hgl-D-Val- D-Glu- D-Leu- D-Ala- NH2", "values": [
      {"measurement": "isolated mass", "value": 12, "unit": "mg"},
      {"measurement": "final LC-MS purity", "value": ">99", "unit": "%"},
      {"measurement": "crude LC-MS purity", "setting": "[1]", "value": 69, "unit": "%"},
      {"measurement": "final LC-MS purity", "setting": "[1]", "value": ">95", "unit": "%"},
      {"measurement": "isolated yield", "value": 14, "unit": "%"}
    ]},
    {"substance": "H-D-Arg- D-Tyr-(3R ,4R)-Hgl-(S)-Val-D-Glu-D-Leu- D-Ala-NH2", "values": [
      {"measurement": "isolated mass", "value": 11, "unit": "mg"},
      {"measurement": "final LC-MS purity", "value": ">99", "unit": "%"},
      {"measurement": "crude LC-MS purity", "setting": "[1]", "value": 55, "unit": "%"},
      {"measurement": "final LC-MS purity", "setting": "[1]", "value": ">95", "unit": "%"},
      {"measurement": "isolated yield", "value": 13, "unit": "%"}
    ]},
    {"substance": "H-D-Arg- D-Tyr-(3R ,4R)-Hgl-D-Val- D-Glu- D-Leu- D-Ala- NH2", "values": [
      {"measurement": "isolated mass", "value": 7, "unit": "mg"},
      {"measurement": "final LC-MS purity", "value": ">99", "unit": "%"},
      {"measurement": "crude LC-MS purity", "setting": "[1]", "value": 42, "unit": "%"},
      {"measurement": "final LC-MS purity", "setting": "[1]", "value": ">95", "unit": "%"},
      {"measurement": "isolated yield", "value": 8, "unit": "%"}
    ]},
    {"substance": "H-D-Arg- D-Tyr-(3S ,4R)-Hgl-(S)-Val-D-Glu-D-Leu- D-Ala-NH2", "values": [
      {"measurement": "isolated mass", "value": 10, "unit": "mg"},
      {"measurement": "final LC-MS purity", "value": ">99", "unit": "%"},
      {"measurement": "crude LC-MS purity", "setting": "[1]", "value": 39, "unit": "%"},
      {"measurement": "final LC-MS purity", "setting": "[1]", "value": ">95", "unit": "%"},
      {"measurement": "isolated yield", "value": 12, "unit": "%"}
    ]},
    {"substance": "H-D-Arg- D-Tyr-(3S ,4R)-Hgl-D-Val- D-Glu-D-Leu- D-Ala- NH2", "values": [
      {"measurement": "isolated mass", "value": 9, "unit": "mg"},
      {"measurement": "final LC-MS purity", "value": ">99", "unit": "%"},
      {"measurement": "crude LC-MS purity", "setting": "[1]", "value": 42, "unit": "%"},
      {"measurement": "final LC-MS purity", "setting": "[1]", "value": ">95", "unit": "%"},
      {"measurement": "isolated yield", "value": 11, "unit": "%"}
    ]},
    {"substance": "H-D-Arg- D-Tyr-(3S ,4S)-Hgl-D-Val- D-Glu- D-Leu- D-Ala- NH2", "values": [
      {"measurement": "isolated mass", "value": 8, "unit": "mg"},
      {"measurement": "final LC-MS purity", "value": ">99", "unit": "%"},
      {"measurement": "crude LC-MS purity", "setting": "[1]", "value": 35, "unit": "%"},
      {"measurement": "final LC-MS purity", "setting": "[1]", "value": ">95", "unit": "%"},
      {"measurement": "isolated yield", "value": 9, "unit": "%"}
    ]}
  ]
}
